Measured values from publication PMC8260731.
These are yes or no findings as the source states them, for the method shown. Binding seen in cells or lysates may run through a third protein. Some binding calls cover weakened binding; strength is not graded here. Where a sequence is shown, tags or fusion partners need not be part of it. Each block holds one molecule with its values, some of them ahead of it.

Amino acid sequences for entries named in this document (tags omitted).
UniProt Q01105: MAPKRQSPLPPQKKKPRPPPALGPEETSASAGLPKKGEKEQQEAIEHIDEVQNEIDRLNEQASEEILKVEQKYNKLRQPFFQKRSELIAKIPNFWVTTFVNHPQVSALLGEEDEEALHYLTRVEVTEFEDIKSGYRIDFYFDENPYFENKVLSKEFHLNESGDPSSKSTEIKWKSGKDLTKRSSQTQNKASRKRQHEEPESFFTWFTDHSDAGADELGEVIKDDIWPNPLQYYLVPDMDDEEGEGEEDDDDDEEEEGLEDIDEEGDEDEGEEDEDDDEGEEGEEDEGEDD

Tests used:
GST-SAP18 (human) = molecular target: T1, GST-SAP18 (human) (UniProt O00422); assay: pull-down; GST fusion (2-3 ug) immobilized on glutathione-Sepharose beads, incubated with 150 ug of HEK 293 cell extract expressing the GFP fusion, 100 ul, 4 h at 4 °C; 50 mM Tris-HCl pH 7.4, 150 mM NaCl, 1% NP-40; western blot with anti-GFP; only the target purified
T1 sequence: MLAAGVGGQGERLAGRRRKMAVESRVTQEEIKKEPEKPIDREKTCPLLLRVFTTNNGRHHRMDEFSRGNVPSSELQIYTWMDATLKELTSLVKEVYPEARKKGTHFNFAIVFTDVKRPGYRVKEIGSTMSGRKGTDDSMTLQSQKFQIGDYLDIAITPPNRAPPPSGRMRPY

GST-SET = GST-SET (UniProt Q01105); assay: as above

binding (GST-SAP18 (human)): binds
Molecule: GFP-SET (from UniProt Q01105 1-290)

binding (GST-SET): binds
B1: GFP-SAP18 (protein, UniProt O00422 1-153)
chain: MAVESRVTQEEIKKEPEKPIDREKTCPLLLRVFTTNNGRHHRMDEFSRGNVPSSELQIYTWMDATLKELTSLVKEVYPEARKKGTHFNFAIVFTDVKRPGYRVKEIGSTMSGRKGTDDSMTLQSQKFQIGDYLDIAITPPNRAPPPSGRMRPY
